From patent US10570104B2, “Metabolically programmed metal chelators and uses thereof” (University of Florida Research Foundation, Incorporated, priority 2015, dated 2020)

What was measured:
[1] = cited from earlier work
[2] = cited from earlier work; remark: listed apart in the source
[3] = Chelator-induced iron clearance (ICE) in iron-overloaded Cebus apella primates; format: in vivo, Cebus apella monkeys; details: for Performance Ratio (PR): mean ICEprimates/ICErodents; for relative percentages of the iron excreted in the feces and urine: monosodium salt; for subcutaneous ICE vs oral ICE: primates
Method: Iron Loading of Cebus apella Monkeys. The monkeys (3.5-6.5 kg) were iron overloaded with intravenous iron dextran as specified in earlier publications to provide about 500 mg of iron per kg of body weight; the serum transferrin iron saturation rose to between 70 and 80%.^38,40 At least 20 half-lives, 60 days, elapsed before any of the animals were used in experiments evaluating iron-chelating agents.
Primate Fecal and Urine Samples. Fecal and urine samples were collected at 24 hours intervals and processed as described previously^38,40,74 Briefly, the collections began 4 days prior to the administration of the test drug and continued for an additional 5 days after the drug was given. Iron concentrations were determined by flame absorption spectroscopy as presented in other publications.^38′^40
Drug Preparation and Administration.
Calculation of Chelator Iron Clearing Efficiency (ICE).

[4] = 300 μmol/kg, monosodium salt
[5] = po, 300 μmol/kg, 48 hour sample collection period, historical

SMILES: C[C@]1(C(=O)O)CSC(c2ncccc2O)=N1 [Compound 1, (S)-4,5-dihydro-2-(3-hydroxy-2-pyridinyl)-4-methyl-4-thiazolecarboxylic acid]
- relative percentages of the iron excreted in the feces and urine ([1]; po, 150 μmol/kg, historical): 78/22
- relative percentages of the iron excreted in the bile and urine [bile/urine] ([2]; po, 150 μmol/kg): 93/7

SMILES: C[C@]1(C(=O)O)CSC(c2ccc(O)cc2O)=N1 [Compound 2, (S)-2-(2,4-dihydroxyphenyl)-4,5-dihydro-4-methyl-4-thiazolecarboxylic acid]
- relative percentages of the iron excreted in the feces and urine ([1]; po, 150 μmol/kg, historical): 88/12
- relative percentages of the iron excreted in the bile and urine [bile/urine] ([2]; po, 300 μmol/kg, historical): 100/0

SMILES: C[C@]1(C(=O)O)CSC(c2cccc(O)c2O)=N1 [Compound 3, (S)-2-(2,3-dihydroxyphenyl)-4,5-dihydro-4-methyl-4-thiazolecarboxylic acid]
- relative percentages of the iron excreted in the feces and urine ([1]; po, 150 μmol/kg, historical): 83/17
- relative percentages of the iron excreted in the bile and urine [bile/urine] ([2]; po, 300 μmol/kg, historical): 98/2

SMILES: COc1ccc(C2=N[C@@](C)(C(=O)O)CS2)c(O)c1 [Compound 4, (S)-4,5-dihydro-2-(2-hydroxy-4-methoxyphenyl)-4-methyl-4-thiazolecarboxylic acid]
- relative percentages of the iron excreted in the feces and urine ([1]; po, 150 μmol/kg, historical): 91/9
- relative percentages of the iron excreted in the bile and urine [bile/urine] ([2]; po, 300 μmol/kg, historical): 98/2

SMILES: COCCOCCOCCOc1ccc(C2=N[C@@](C)(C(=O)O)CS2)c(O)c1 [Compound 5, (S)-4,5-dihydro-2-[2-hydroxy-4-(3,6,9-trioxadecyloxy)phenyl]-4-methyl-4-thiazolecarboxylic acid]
- relative percentages of the iron excreted in the feces and urine ([1]; po, 150 μmol/kg, historical): 96/4
- relative percentages of the iron excreted in the bile and urine [bile/urine] ([2]; po, 300 μmol/kg, historical): 90/10

SMILES: COCCOCCOCCOc1cccc(C2=N[C@@](C)(C(=O)O)CS2)c1O [Compound 6, (S)-4,5-dihydro-2-[2-hydroxy-3-(3,6,9-trioxadecyloxy)phenyl]-4-methyl-4-thiazolecarboxylic acid]
- relative percentages of the iron excreted in the feces and urine ([1]; po, 150 μmol/kg, historical): 95/5
- relative percentages of the iron excreted in the bile and urine [bile/urine] [2, 5]: 95/5

SMILES: COCCOCCOc1ccc(C2=N[C@@](C)(C(=O)O)CS2)c(O)c1 [Compound 7, (S)-4,5-dihydro-2-[2-hydroxy-4-(3,6-dioxaheptyloxy)phenyl]-4-methyl-4-thiazolecarboxylic acid]
- relative percentages of the iron excreted in the feces and urine ([1]; po, 75 μmol/kg, as monosodium salt, historical): 83/17
- relative percentages of the iron excreted in the feces and urine ([1]; po, 75 μmol/kg, in capsules, historical): 93/7
- Performance Ratio (PR) ([3]; po, primates given capsules): 1.0
- Performance Ratio (PR) ([3]; po, primates given monosodium salt): 1.1
- relative percentages of the iron excreted in the bile and urine [bile/urine] [2, 5]: 97/3

SMILES: C[C@]1(C(=O)O)CSC(c2ccc(OCCOCCO)cc2O)=N1 [Compound 8, (S)-4,5-dihydro-2-[2-hydroxy-4-(5-hydroxy-3-oxapentyloxy)phenyl]-4-methyl-4-thiazolecarboxylic acid]
- Performance Ratio (PR) ([3]; po): 0.6
- relative percentages of the iron excreted in the feces and urine ([3]; po, 75 μmol/kg): 54/46
- relative percentages of the iron excreted in the bile and urine [bile/urine] ([4]; po): 98/2

SMILES: C[C@]1(C(=O)O)CSC(c2ccc(OCCOCC(=O)O)cc2O)=N1 [Compound 9, (S)-4,5-dihydro-2-[2-hydroxy-4-(4-carboxy-3-oxabutyloxy)phenyl]-4-methyl-4-thiazolecarboxylic acid]
- Performance Ratio (PR) ([3]; po): 0.3
- Performance Ratio (PR) ([3]; sc): 1.5
- relative percentages of the iron excreted in the feces and urine ([3]; po, 75 μmol/kg): 51/49
- subcutaneous ICE vs oral ICE ([3]; 75 μmol/kg): 10.2 times and 10 times
- increase of ICE, subcutaneous vs oral ([3]; same monkeys, 75 μmol/kg): more than 10 fold
- relative percentages of the iron excreted in the feces and urine ([3]; sc, 75 μmol/kg): 84/16
- relative percentages of the iron excreted in the bile and urine [bile/urine] ([4]; po): 100/0
- relative percentages of the iron excreted in the bile and urine [bile/urine] ([4]; sc): 99/1

SMILES: COCCCCCCOc1ccc(C2=N[C@@](C)(C(=O)O)CS2)c(O)c1 [Compound 10, (S)-4,5-dihydro-2-[2-hydroxy-4-(6-methoxyhexyloxy)phenyl]-4-methyl-4-thiazolecarboxylic acid]
- relative percentages of the iron excreted in the bile and urine [bile/urine] ([4]; po): 99/1

SMILES: C[C@]1(C(=O)O)CSC(c2ccc(OCCCCCCO)cc2O)=N1 [Compound 11, (S)-4,5-dihydro-2-[2-hydroxy-4-(6-hydroxyhexyloxy)phenyl]-4-methyl-4-thiazolecarboxylic acid]
- Performance Ratio (PR) ([3]; po): 2.2
- relative percentages of the iron excreted in the feces and urine ([3]; po, 75 μmol/kg): 90/10
- relative percentages of the iron excreted in the bile and urine [bile/urine] ([4]; po): 96/4

SMILES: C[C@]1(C(=O)O)CSC(c2ccc(OCCCCCC(=O)O)cc2O)=N1 [Compound 12, (S)-4,5-dihydro-2-[2-hydroxy-4-(5-carboxypentyloxy)phenyl]-4-methyl-4-thiazolecarboxylic acid]
- Performance Ratio (PR) ([3]; po): 1.2
- Performance Ratio (PR) ([3]; sc): 4.4
- relative percentages of the iron excreted in the feces and urine ([3]; po, 75 μmol/kg): 82/18
- relative percentages of the iron excreted in the feces and urine ([3]; sc, 75 μmol/kg): 69/31
- relative percentages of the iron excreted in the bile and urine [bile/urine] ([4]; po): 94/6
- relative percentages of the iron excreted in the bile and urine [bile/urine] ([4]; sc): 96/4

SMILES: C[C@]1(C(=O)O)CSC(c2ccc(OCCCC(=O)O)cc2O)=N1 [Compound 13, (S)-4,5-dihydro-2-[2-hydroxy-4-(3-carboxypropyloxy)phenyl]-4-methyl-4-thiazolecarboxylic acid]
- Performance Ratio (PR) ([3]; po): 1.5
- Performance Ratio (PR) ([3]; sc): 4.2
- relative percentages of the iron excreted in the feces and urine ([3]; po, 75 μmol/kg): 97/3
- subcutaneous ICE vs oral ICE ([3]; 75 μmol/kg): 3.4 times
- relative percentages of the iron excreted in the feces and urine ([3]; sc, 75 μmol/kg): 78/22
- relative percentages of the iron excreted in the bile and urine [bile/urine] ([4]; po): 89/11
- relative percentages of the iron excreted in the bile and urine [bile/urine] ([4]; sc): 95/5

SMILES: C[C@]1(C(=O)O)CSC(c2ccc(OCC(=O)O)cc2O)=N1 [Compound 14, (S)-4,5-dihydro-2-[2-hydroxy-4-(carboxymethoxy)phenyl]-4-methyl-4-thiazolecarboxylic acid]
- Performance Ratio (PR) ([3]; po): 1.2
- Performance Ratio (PR) ([3]; sc): 2.7
- relative percentages of the iron excreted in the feces and urine ([3]; po, 75 μmol/kg): 60/40
- subcutaneous ICE vs oral ICE ([3]; 75 μmol/kg): 5.3 times
- relative percentages of the iron excreted in the feces and urine ([3]; sc, 75 μmol/kg): 53/47
- relative percentages of the iron excreted in the bile and urine [bile/urine] ([4]; po): 89/11
- relative percentages of the iron excreted in the bile and urine [bile/urine] ([4]; sc): 94/6

SMILES: CC(=O)N(O)CCCCCNC(=O)CCC(=O)N(O)CCCCCNC(=O)CCC(=O)N(O)CCCCCN [DFO, desferrioxamine B]
- relative percentages of the iron excreted in the feces and urine ([1]; sc, 150 μmol/kg): 45/55
- relative percentages of the iron excreted in the bile and urine [bile/urine] ([2]; sc, 150 μmol/kg): 74/26

Values joined by “and” are separate entries in the source; they are usually repeats but may differ in a detail not shown here. Equal entries are not always repeated. Where two headings read alike, the source gives them in different places.
